From the supplement of paper PMC10849652
This is one part of the list.

By UniProt entry, the sequences of proteins in these tests, tags left out. Where a name states a change or a piece, a line headed by the entry shows the natural chain unless it says otherwise.
UniProt Q6P4A7: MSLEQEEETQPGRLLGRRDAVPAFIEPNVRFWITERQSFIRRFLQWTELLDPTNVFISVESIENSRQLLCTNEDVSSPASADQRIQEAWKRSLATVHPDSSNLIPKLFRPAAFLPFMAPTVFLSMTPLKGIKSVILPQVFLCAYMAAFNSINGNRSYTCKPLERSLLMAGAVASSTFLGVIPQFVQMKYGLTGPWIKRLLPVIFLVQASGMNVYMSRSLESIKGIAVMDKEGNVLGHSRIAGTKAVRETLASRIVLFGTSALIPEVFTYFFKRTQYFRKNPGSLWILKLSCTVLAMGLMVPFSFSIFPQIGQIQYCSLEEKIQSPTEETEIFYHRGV
UniProt Q99963: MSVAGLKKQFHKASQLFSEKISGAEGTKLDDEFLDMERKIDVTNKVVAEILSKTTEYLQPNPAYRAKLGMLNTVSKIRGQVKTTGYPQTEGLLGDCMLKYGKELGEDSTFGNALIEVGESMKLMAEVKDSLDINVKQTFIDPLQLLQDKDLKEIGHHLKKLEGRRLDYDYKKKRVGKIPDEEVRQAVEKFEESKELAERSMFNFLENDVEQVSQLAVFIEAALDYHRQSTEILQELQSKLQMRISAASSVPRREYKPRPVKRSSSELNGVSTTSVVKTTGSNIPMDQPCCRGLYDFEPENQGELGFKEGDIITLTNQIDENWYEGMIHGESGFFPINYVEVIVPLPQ
UniProt Q86XK3: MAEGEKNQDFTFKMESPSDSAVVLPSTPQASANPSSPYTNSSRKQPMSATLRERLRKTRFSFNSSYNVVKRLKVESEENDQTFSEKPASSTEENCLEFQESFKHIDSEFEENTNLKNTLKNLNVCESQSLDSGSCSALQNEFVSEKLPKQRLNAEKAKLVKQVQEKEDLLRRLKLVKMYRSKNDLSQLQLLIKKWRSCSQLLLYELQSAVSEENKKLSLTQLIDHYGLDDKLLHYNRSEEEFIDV
UniProt P36952: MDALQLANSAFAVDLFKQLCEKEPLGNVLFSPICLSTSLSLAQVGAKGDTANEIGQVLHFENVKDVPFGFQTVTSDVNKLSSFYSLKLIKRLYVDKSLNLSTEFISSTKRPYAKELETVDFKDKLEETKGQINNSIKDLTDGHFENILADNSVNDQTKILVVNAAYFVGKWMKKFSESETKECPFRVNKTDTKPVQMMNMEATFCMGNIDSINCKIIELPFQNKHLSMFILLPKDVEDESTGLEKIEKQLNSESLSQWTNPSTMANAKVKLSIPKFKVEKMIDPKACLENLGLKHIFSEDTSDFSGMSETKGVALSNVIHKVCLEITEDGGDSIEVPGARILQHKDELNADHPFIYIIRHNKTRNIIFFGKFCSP
UniProt P49908, whole entry, looked up: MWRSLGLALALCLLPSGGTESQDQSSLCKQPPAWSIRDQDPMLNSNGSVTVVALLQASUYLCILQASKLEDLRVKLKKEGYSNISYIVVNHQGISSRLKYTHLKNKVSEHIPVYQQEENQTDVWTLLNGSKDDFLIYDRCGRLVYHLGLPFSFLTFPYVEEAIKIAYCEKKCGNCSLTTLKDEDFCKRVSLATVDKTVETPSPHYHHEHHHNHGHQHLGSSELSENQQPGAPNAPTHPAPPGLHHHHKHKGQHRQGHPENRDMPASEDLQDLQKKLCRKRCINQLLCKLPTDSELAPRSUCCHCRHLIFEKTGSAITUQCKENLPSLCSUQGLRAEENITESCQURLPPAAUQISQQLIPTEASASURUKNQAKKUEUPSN
UniProt P62341, whole entry, looked up: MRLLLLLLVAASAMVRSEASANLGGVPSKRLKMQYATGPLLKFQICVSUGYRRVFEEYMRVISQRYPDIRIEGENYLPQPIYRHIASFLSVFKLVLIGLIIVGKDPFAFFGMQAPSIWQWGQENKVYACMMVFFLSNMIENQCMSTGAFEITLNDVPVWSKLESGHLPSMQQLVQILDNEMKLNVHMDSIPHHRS
UniProt Q9GZR1: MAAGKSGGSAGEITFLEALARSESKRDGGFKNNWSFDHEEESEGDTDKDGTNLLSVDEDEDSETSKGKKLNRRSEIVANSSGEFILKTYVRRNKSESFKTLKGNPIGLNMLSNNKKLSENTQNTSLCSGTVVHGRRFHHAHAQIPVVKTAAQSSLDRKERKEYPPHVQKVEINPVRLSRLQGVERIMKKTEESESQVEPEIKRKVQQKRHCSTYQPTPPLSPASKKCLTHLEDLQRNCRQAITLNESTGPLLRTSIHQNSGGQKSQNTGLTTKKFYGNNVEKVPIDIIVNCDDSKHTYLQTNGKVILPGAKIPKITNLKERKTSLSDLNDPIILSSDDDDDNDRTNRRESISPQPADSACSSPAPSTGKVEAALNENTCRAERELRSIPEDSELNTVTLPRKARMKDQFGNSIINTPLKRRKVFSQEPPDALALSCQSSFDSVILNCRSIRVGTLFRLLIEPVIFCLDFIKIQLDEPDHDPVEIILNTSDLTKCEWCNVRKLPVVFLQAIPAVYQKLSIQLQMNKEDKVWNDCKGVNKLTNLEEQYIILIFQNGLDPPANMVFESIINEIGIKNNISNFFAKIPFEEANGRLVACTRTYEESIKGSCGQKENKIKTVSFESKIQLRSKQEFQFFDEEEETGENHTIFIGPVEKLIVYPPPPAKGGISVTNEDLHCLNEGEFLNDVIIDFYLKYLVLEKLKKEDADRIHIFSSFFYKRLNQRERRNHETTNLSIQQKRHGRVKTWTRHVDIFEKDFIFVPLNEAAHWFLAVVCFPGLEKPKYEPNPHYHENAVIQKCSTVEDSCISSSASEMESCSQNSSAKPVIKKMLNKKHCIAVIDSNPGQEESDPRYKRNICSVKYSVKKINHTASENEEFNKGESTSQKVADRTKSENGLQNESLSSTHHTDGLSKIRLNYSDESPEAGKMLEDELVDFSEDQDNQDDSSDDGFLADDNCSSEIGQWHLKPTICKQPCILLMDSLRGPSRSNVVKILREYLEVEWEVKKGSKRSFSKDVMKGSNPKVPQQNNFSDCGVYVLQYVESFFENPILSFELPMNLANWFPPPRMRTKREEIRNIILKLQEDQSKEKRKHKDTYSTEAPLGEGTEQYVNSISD
UniProt Q8WWX9, whole entry, looked up: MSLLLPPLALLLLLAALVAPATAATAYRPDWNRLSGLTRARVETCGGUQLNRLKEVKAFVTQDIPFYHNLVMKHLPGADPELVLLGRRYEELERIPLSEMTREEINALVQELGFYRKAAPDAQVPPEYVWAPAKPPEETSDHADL
UniProt Q9Y6P5: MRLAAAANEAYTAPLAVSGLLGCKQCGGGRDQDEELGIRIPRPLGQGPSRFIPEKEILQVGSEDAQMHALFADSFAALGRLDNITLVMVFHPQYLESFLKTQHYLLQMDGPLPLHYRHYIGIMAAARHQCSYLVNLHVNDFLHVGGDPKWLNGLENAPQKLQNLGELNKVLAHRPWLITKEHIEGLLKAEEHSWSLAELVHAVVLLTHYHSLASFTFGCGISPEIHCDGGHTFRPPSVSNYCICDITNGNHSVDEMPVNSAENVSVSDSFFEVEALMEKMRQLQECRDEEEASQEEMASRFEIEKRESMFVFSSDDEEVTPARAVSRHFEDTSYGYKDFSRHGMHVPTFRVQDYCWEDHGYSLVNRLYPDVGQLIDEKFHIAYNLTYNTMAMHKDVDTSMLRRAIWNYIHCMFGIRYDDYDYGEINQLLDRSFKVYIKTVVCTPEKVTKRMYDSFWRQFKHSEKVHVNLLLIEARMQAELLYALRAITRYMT
UniProt Q9NP31, whole entry, looked up: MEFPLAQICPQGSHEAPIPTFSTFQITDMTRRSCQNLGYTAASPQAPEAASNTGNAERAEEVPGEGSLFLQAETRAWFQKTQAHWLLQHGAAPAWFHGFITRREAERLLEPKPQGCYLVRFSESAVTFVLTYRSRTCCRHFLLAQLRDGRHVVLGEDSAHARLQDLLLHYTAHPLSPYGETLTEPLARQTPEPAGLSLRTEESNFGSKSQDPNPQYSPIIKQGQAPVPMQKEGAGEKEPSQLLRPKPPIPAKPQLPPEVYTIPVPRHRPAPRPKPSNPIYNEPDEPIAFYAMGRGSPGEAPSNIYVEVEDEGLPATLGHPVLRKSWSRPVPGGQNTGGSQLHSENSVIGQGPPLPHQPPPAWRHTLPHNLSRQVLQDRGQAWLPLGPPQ
UniProt Q9BYW2: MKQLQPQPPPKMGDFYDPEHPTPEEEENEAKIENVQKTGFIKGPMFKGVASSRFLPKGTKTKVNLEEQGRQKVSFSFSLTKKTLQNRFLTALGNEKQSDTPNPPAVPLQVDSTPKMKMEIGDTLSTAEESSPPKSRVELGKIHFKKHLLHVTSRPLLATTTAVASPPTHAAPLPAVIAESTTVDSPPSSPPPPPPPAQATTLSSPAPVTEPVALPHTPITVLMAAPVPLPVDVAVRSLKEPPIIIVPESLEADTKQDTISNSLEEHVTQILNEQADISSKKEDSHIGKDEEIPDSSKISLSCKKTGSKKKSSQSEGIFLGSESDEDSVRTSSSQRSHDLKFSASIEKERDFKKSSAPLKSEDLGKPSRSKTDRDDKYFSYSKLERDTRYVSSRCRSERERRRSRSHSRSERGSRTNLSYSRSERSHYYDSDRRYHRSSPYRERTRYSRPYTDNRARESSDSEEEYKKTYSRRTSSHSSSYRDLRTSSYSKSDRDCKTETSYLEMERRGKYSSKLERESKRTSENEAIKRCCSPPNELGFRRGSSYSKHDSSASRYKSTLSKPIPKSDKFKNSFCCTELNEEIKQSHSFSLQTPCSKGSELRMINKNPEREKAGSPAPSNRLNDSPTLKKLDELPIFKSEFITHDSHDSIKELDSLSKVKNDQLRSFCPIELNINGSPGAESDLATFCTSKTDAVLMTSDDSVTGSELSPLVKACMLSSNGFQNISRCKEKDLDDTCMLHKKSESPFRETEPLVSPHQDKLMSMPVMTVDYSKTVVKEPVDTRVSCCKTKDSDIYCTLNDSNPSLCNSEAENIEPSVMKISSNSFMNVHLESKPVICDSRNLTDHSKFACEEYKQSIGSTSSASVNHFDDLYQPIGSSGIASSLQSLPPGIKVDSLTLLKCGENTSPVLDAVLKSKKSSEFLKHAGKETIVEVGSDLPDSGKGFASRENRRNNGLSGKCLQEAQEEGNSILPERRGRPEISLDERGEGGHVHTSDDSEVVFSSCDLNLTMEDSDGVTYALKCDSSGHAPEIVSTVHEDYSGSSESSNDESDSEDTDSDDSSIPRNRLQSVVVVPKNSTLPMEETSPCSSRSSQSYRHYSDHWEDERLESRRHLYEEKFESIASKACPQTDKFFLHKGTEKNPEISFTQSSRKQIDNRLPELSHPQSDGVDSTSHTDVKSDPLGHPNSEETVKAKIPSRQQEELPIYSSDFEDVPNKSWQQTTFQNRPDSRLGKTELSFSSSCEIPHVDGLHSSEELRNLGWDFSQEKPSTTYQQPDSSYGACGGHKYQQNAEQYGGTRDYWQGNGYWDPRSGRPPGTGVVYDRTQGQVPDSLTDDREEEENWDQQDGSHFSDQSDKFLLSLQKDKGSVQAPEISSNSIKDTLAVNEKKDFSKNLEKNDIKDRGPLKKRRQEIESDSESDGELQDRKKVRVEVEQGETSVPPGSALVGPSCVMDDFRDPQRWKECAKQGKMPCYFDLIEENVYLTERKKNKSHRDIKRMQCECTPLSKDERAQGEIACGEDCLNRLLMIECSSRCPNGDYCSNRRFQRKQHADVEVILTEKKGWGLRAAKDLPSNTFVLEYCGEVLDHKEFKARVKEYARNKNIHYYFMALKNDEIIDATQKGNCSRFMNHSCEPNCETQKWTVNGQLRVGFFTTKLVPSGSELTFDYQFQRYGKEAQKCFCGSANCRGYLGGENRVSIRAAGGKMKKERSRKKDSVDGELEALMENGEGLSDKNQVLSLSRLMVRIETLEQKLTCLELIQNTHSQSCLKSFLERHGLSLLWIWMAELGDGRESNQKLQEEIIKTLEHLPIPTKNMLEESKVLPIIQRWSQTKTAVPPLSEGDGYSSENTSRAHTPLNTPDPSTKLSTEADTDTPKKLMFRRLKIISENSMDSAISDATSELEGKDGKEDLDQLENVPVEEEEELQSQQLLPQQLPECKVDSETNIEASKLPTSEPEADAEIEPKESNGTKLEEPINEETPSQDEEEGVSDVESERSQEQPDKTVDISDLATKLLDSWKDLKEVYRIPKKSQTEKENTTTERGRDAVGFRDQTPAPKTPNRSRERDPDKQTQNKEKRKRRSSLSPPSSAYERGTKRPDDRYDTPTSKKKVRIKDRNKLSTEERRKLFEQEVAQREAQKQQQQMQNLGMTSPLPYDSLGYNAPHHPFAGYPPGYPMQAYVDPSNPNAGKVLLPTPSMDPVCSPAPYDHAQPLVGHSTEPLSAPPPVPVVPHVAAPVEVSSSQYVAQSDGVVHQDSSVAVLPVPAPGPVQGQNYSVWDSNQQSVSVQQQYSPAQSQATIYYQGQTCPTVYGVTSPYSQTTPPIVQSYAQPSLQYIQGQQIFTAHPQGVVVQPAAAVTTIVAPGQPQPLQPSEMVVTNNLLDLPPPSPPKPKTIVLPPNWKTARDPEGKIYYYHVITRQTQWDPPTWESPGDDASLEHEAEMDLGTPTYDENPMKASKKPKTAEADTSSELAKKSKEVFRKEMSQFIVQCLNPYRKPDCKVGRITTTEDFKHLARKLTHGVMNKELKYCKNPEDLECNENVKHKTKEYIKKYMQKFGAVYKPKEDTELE

Tests used:
Assay in all cases: log2 fold change, soluble protein after heating vs DMSO (PISA); higher = thermal stabilisation; K562 cells, 10 uM, 30 min; active = over 0.2 and 3.5 SD of the protein, either way, in both replicates (recomputed)
[1] = compound: CS(=O)(=O)c1ccc(-c2cnc(N)c(C(=O)Nc3ccccc3)n2)cc1
In short: (§1)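 Values are thermal stability changes relative to control samples and are taken from duplicates. They are stated as log2 fold changes. Before quantification by TMTpro 16plex LC-MS/MS with equalised channel sums, K562 cells at 2×10^6 cells/mL were treated with 10 μM compound for 30 min, heated in aliquots for 3 min across 48°C-58°C, pooled, extracted in PBS with 0.5% NP-40 at 4°C, and centrifuged at 21,000xg for 90 min to give the soluble supernatant.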

[2] = compound: C[C@@H]1COCCN1C2=NC(=NC(=C2)C3(CC3)S(=O)(=O)C)C4=C5C=CNC5=CC=C4
In short: as §1

[3] = compound: C[C@H](C1=CC=C(C=C1)C(=O)NC2=C3C=CNC3=NC=C2)N
In short: as §1

gandotinib = compound: Cc1cc(Nc2cc(CN3CCOCC3)c3nc(C)c(Cc4ccc(Cl)cc4F)n3n2)n[nH]1 [gandotinib]
In short: as §1

tozasertib = compound: Cc1cc(Nc2cc(N3CCN(C)CC3)nc(Sc3ccc(NC(=O)C4CC4)cc3)n2)n[nH]1 [tozasertib]
In short: as §1

bafetinib = compound: Cc1ccc(NC(=O)c2ccc(CN3CC[C@H](N(C)C)C3)c(C(F)(F)F)c2)cc1Nc1nccc(-c2cncnc2)n1 [bafetinib]
In short: as §1

[4] = compound: Cc1cccc(CC(=O)N2CCc3c2ccc(-c2cn(C)c4ncnc(N)c24)c3F)n1
In short: as §1

nilotinib = compound: Cc1cn(-c2cc(NC(=O)c3ccc(C)c(Nc4nccc(-c5cccnc5)n4)c3)cc(C(F)(F)F)c2)cn1 [nilotinib]
In short: as §1

[5] = compound: Cc1nc(Nc2n[nH]c3c2CN(C(=O)N[C@H](CN(C)C)c2ccccc2)C3(C)C)c2sccc2n1
In short: as §1

[6] = compound: Cc1ncc(-c2ccnc(Nc3ccc(S(C)(=O)=O)cc3)n2)n1C(C)C
In short: as §1

[7] = compound: Cn1cc(-c2ccc3c(c2)CCN3C(=O)Cc2cccc(C(F)(F)F)c2)c2c(N)ncnc21
In short: as §1

mubritinib = compound: FC(F)(F)c1ccc(/C=C/c2nc(COc3ccc(CCCCn4ccnn4)cc3)co2)cc1 [mubritinib]
In short: as §1

crizotinib = compound: C[C@@H](Oc1cc(-c2cnn(C3CCNCC3)c2)cnc1N)c1c(Cl)ccc(F)c1Cl [crizotinib]
In short: as §1

[8] = compound: Cc1cc(SCc2sc(-c3ccc(C(F)(F)F)cc3)nc2C)ccc1OCC(=O)O
In short: as §1

doramapimod = compound: Cc1ccc(-n2nc(C(C)(C)C)cc2NC(=O)Nc2ccc(OCCN3CCOCC3)c3ccccc23)cc1 [doramapimod]
In short: as §1

ispinesib = compound: Cc1ccc(C(=O)N(CCCN)[C@@H](c2nc3cc(Cl)ccc3c(=O)n2Cc2ccccc2)C(C)C)cc1 [ispinesib]
In short: as §1

dasatinib = compound: Cc1nc(Nc2ncc(C(=O)Nc3c(C)cccc3Cl)s2)cc(N2CCN(CCO)CC2)n1 [dasatinib]
In short: as §1

[9] = compound: Cn1cc(-c2ccc3nnc(C(F)(F)c4ccc5ncccc5c4)n3n2)cn1
In short: as §1

tipifarnib = compound: Cn1cncc1[C@@](N)(c1ccc(Cl)cc1)c1ccc2c(c1)c(-c1cccc(Cl)c1)cc(=O)n2C [tipifarnib]
In short: as §1

duvelisib = compound: C[C@H](Nc1ncnc2nc[nH]c12)c1cc2cccc(Cl)c2c(=O)n1-c1ccccc1 [duvelisib]
In short: as §1

For SELENOK (UniProt Q9Y6D0), the log2 fold change [1] was inactive: -0.037, the log2 fold change [2] was inactive: 0.087 and the log2 fold change [3] was inactive: 0.079. The log2 fold change (gandotinib) was inactive: -0.441, the log2 fold change (tozasertib) was inactive: 0.09 and the log2 fold change (bafetinib) was inactive: 0.101. The log2 fold change [4] was inactive: 0.126, the log2 fold change (nilotinib) was inactive: 0.043 and the log2 fold change [5] was inactive: 0.013. For the same target, the log2 fold change [6] was inactive: 0.083, the log2 fold change [7] was inactive: -0.012 and the log2 fold change (mubritinib) was inactive: -0.037.
In the case of SHCBP1 (UniProt Q8NEM2), the log2 fold change [1] is reported as inactive: 0.092, the log2 fold change (crizotinib) is reported as inactive: -0.077 and the log2 fold change [2] is reported as inactive: 0.043. For the same target, the log2 fold change [3] was inactive: 0.119, the log2 fold change (gandotinib) was inactive: -0.124 and the log2 fold change [8] was inactive: 0.169. For the same target, the log2 fold change (doramapimod) was inactive: 0.02, the log2 fold change (ispinesib) was inactive: -0.096 and the log2 fold change (bafetinib) was inactive: -0.017. The log2 fold change [4] was inactive: 0.041, the log2 fold change (nilotinib) was inactive: -0.207 and the log2 fold change [5] was active: -0.459. The log2 fold change (dasatinib) was inactive: -0.091, the log2 fold change [6] was inactive: 0.003 and the log2 fold change [7] was inactive: 0.223. The log2 fold change [9] was inactive: 0.004, the log2 fold change (tipifarnib) was inactive: 0.299 and the log2 fold change (mubritinib) was inactive: 0.1.
SFXN4 isoform 3 (UniProt Q6P4A7) was tested, and the log2 fold change [1] was inactive: 0.189, the log2 fold change [3] was inactive: -0.22 and the log2 fold change (duvelisib) was inactive: 0.029. For the same target, the log2 fold change (gandotinib) was inactive: -0.173, the log2 fold change (tozasertib) was inactive: -0.06 and the log2 fold change [8] was inactive: 0.002. The log2 fold change (bafetinib) was inactive: -0.003, the log2 fold change [4] was inactive: 0.001 and the log2 fold change (dasatinib) was inactive: -0.051. The log2 fold change [7] was inactive: 0.124 and the log2 fold change (tipifarnib) was inactive: 0.
SH3GL3 isoform 3 (UniProt Q99963) was tested, and the log2 fold change [1] was inactive: 0.098, the log2 fold change (tozasertib) was inactive: -0.208 and the log2 fold change (ispinesib) was inactive: -0.259. For the same target, the log2 fold change [9] was inactive: -0.31, the log2 fold change (tipifarnib) was inactive: 0.059 and the log2 fold change (mubritinib) was inactive: 0.053.
SF3B5 (UniProt Q9BWJ5) was tested, and the log2 fold change [1] was inactive: 0.027, the log2 fold change (crizotinib) was inactive: -0.012 and the log2 fold change [2] was inactive: 0.176. The log2 fold change (gandotinib) was inactive: 0.087, the log2 fold change [8] was inactive: 0.002 and the log2 fold change (doramapimod) was inactive: -0.089. The log2 fold change (bafetinib) was inactive: -0.115, the log2 fold change [4] was inactive: -0.056 and the log2 fold change (nilotinib) was inactive: 0.029. For the same target, the log2 fold change [5] was inactive: 0.008, the log2 fold change (dasatinib) was inactive: -0.189 and the log2 fold change [6] was inactive: -0.064. The log2 fold change (tipifarnib) was inactive: -0.018 and the log2 fold change (mubritinib) was inactive: -0.043.
In the case of SFR1 isoform 2 (UniProt Q86XK3), the log2 fold change [1] is reported as inactive: -0.107, the log2 fold change [2] is reported as inactive: -0.154 and the log2 fold change [3] is reported as inactive: 0.068. The log2 fold change (ispinesib) was inactive: 0.028, the log2 fold change (bafetinib) was inactive: 0.086 and the log2 fold change [7] was inactive: -0.116. For the same target, the log2 fold change [9] was inactive: -0.023 and the log2 fold change (mubritinib) was inactive: 0.089.
For SERPINB5 (UniProt P36952), the log2 fold change [1] was inactive: 0.079, the log2 fold change (duvelisib) was inactive: 0.075 and the log2 fold change (tozasertib) was inactive: 0.038. The log2 fold change [8] was inactive: 0.211, the log2 fold change (ispinesib) was inactive: 0.007 and the log2 fold change (bafetinib) was inactive: 0.736. The log2 fold change (dasatinib) was inactive: -0.692, the log2 fold change [9] was inactive: 0.332 and the log2 fold change (mubritinib) was inactive: -0.166.
With SELENOP (UniProt P49908) the log2 fold change [1] was inactive: 0.096, the log2 fold change (crizotinib) was inactive: -0.018 and the log2 fold change (doramapimod) was inactive: 0.094. The log2 fold change (bafetinib) was inactive: -0.356 and the log2 fold change (mubritinib) was inactive: 0.083.
For SELENOT (UniProt P62341), the log2 fold change [1] was inactive: 0.005, the log2 fold change (crizotinib) was inactive: 0.004 and the log2 fold change [2] was inactive: -0.018. For the same target, the log2 fold change (duvelisib) was inactive: 0.077, the log2 fold change (gandotinib) was inactive: -0.304 and the log2 fold change (tozasertib) was inactive: -0.064. The log2 fold change [8] was inactive: 0.025, the log2 fold change (doramapimod) was inactive: 0.04 and the log2 fold change (ispinesib) was inactive: -0.014. For the same target, the log2 fold change (bafetinib) was inactive: -0.046, the log2 fold change [4] was inactive: -0.042 and the log2 fold change (nilotinib) was inactive: 0.094. For the same target, the log2 fold change [5] was inactive: -0.027, the log2 fold change (dasatinib) was inactive: 0.05 and the log2 fold change [6] was inactive: 0.008. The log2 fold change [9] was inactive: 0.088, the log2 fold change (tipifarnib) was inactive: -0.057 and the log2 fold change (mubritinib) was inactive: 0.078.
For SENP6 (UniProt Q9GZR1), the log2 fold change [1] was inactive: -0.016, the log2 fold change (crizotinib) was inactive: -0.015 and the log2 fold change [2] was inactive: -0.134. For the same target, the log2 fold change [3] was inactive: -0.002, the log2 fold change (gandotinib) was inactive: -0.056 and the log2 fold change [8] was inactive: -0.046. The log2 fold change (doramapimod) was inactive: 0.006, the log2 fold change (ispinesib) was inactive: -0.046 and the log2 fold change (bafetinib) was inactive: 0.015. The log2 fold change [4] was inactive: -0.015, the log2 fold change (nilotinib) was inactive: 0.007 and the log2 fold change [5] was inactive: -0.038. The log2 fold change (dasatinib) was inactive: -0.028, the log2 fold change [6] was inactive: 0.063 and the log2 fold change [7] was inactive: 0.046. For the same target, the log2 fold change [9] was inactive: -0.013, the log2 fold change (tipifarnib) was inactive: 0.025 and the log2 fold change (mubritinib) was inactive: 0.053.
In the case of SELENOM (UniProt Q8WWX9), the log2 fold change [2] is reported as inactive: 0.104, the log2 fold change (nilotinib) is reported as inactive: 0.256 and the log2 fold change [5] is reported as inactive: -0.114. For the same target, the log2 fold change [6] was inactive: 0.137.
SEPTIN7 isoform 2 (UniProt Q16181) was tested, and the log2 fold change (tozasertib) was inactive: -0.019 and the log2 fold change (mubritinib) was inactive: -0.44.
With SESN1 isoform 2 (UniProt Q9Y6P5) the log2 fold change (crizotinib) was inactive: -0.024, the log2 fold change (tozasertib) was inactive: 0.03 and the log2 fold change (doramapimod) was inactive: 0.272.
In the case of SKAP2 (UniProt O75563), the log2 fold change (crizotinib) is reported as inactive: -0.155, the log2 fold change (duvelisib) is reported as inactive: 0.065 and the log2 fold change (tozasertib) is reported as inactive: -0.109. For the same target, the log2 fold change [8] was inactive: 0.168, the log2 fold change (doramapimod) was inactive: 0.075 and the log2 fold change (ispinesib) was inactive: -0.226. The log2 fold change (dasatinib) was inactive: 0.008, the log2 fold change [9] was inactive: 0.018 and the log2 fold change (tipifarnib) was inactive: 0.154. The log2 fold change (mubritinib) was inactive: -0.043.
In the case of SH2D2A isoform 2 (UniProt Q9NP31), the log2 fold change (crizotinib) is reported as inactive: 0.171, the log2 fold change [3] is reported as inactive: -0.043 and the log2 fold change (duvelisib) is reported as inactive: -0.089. For the same target, the log2 fold change (gandotinib) was inactive: -0.142, the log2 fold change [8] was inactive: -0.19 and the log2 fold change (doramapimod) was inactive: -0.038. The log2 fold change [4] was inactive: -0.188, the log2 fold change (nilotinib) was inactive: 0.013 and the log2 fold change [5] was inactive: 0.015. For the same target, the log2 fold change (dasatinib) was inactive: -0.077, the log2 fold change [6] was inactive: 0.011 and the log2 fold change [7] was inactive: -0.09. For the same target, the log2 fold change (tipifarnib) was inactive: -0.006 and the log2 fold change (mubritinib) was inactive: -0.113.
For SETD2 (UniProt Q9BYW2), the log2 fold change (gandotinib) was inactive: -0.035, the log2 fold change (tozasertib) was inactive: -0.172 and the log2 fold change [4] was inactive: 0.036.
With SEPTIN2 (UniProt B5MCX3) the log2 fold change (tozasertib) was inactive: -0.131, the log2 fold change (ispinesib) was inactive: -0.278 and the log2 fold change [9] was inactive: 0.151.
